Results reported in PubChem BioAssay AID1347075 (National Center for Advancing Translational Sciences (NCATS), 2019).
Where “and” joins values, the source holds several entries; their conditions need not be identical. Equal values may be shown once. Hit rate of the full screen: of about 400,000 compounds, about 5,500 (1.4%) were called active. This list was built around the results that the source calls inconclusive (neither active nor inactive); the mix of calls is not that of the screen. Calls come from the whole dose curve; as a rule, active = well fitted cell-killing curve with a large enough effect; inconclusive = small, poorly fitted or top-dose-only effect, or effect the other way; inactive = flat fitted curve, though single readings scatter. Potencies of inconclusive entries are doubtful fits and often do not repeat.
% is set by controls: 0 for no effect and ±100 for the full control effect; potency is the fitted concentration of half-maximal effect.

Assay: qHTS assay for MDR1-selective chemotherapeutics: Primary screen using the parental adenocarcinoma cell KB-3-1; note: nearly all actives have a fitted effect of over 60% in size
Conditions: KB-3-1 viability, CellTiter-Glo ATP luminescence, 72 h; activity change, negative = cytotoxic: at 46.1 µM (top of the series)
In short: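 Parental KB-3-1 adenocarcinoma cells in phenol-red-free DMEM with 10% FBS were pin-treated with compounds at several concentrations, incubated 72 h at 37 °C, and viability read by CellTiter-Glo luminescence; concentration-effect curves were fitted after normalization.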
With `O=[N+]([O-])c1ccc(NCCNc2ccc(Cl)nn2)cc1` the Potency was inconclusive: 23.1 µM [rising, single point].
With `N#C/C(=C(/O)c1ccc(Cl)c([N+](=O)[O-])c1)c1nc2ccccc2[nH]1` the Potency was inconclusive: 20.6 µM [cytotoxic, partial curve, poor fit].
In the case of `C=C1C(=O)[C@]23C[C@H]1CC[C@H]2[C@]1(C)[C@@H](OC(C)=O)CC[C@@](C)(C(=O)O)[C@H]1C[C@@H]3OC(C)=O`, the Potency is reported as inconclusive: 29.1 µM [cytotoxic, single point].
With `COC(=O)[C@]12CCCCC=C1N(Cc1ccccc1)C(=O)[C@H](CC(=O)NCC13CC4CC(CC(C4)C1)C3)C2` the Potency was inconclusive: 29.1 µM [cytotoxic, single point].
For `O=C(Nc1ccc(F)cc1)c1cc(-c2ccccn2)nc2c(Cl)cccc12`, the Potency was inconclusive: 16.4 µM [cytotoxic, single point].
In the case of `O=C(CSC1=Nc2ccccc2N=C(c2ccc(F)cc2)C1)NCc1ccccc1`, the “activity change, negative = cytotoxic” value is reported as inactive: 7.72%.
In the case of `CCn1c(SC(C)C(=O)Nc2nccs2)nnc1-c1ccncc1` (configuration not stated), the “activity change, negative = cytotoxic” value is reported as inactive: 3.28%.
With `COc1cccc(/C(O)=C2/C(=O)C(=O)N(Cc3ccco3)C2c2ccncc2)c1` (configuration not stated) the Potency was inconclusive: 14.6 µM [rising, partial curve, poor fit].
For `CCOC(=O)n1c(=O)n(C)c2ccc(Cl)cc21`, the Potency was inconclusive: 10.3 µM [cytotoxic, partial curve, poor fit].
In the case of `O=C/C=C/c1c(-c2ccccc2)cc2oc3ccccc3cc1-2`, the Potency is reported as inconclusive: 29.1 µM [cytotoxic, single point].
With `CCc1c(-c2cccc(Cl)c2)ncn1Cc1cccc(-c2ccccc2)c1` the Potency was inconclusive: 29.1 µM [cytotoxic, single point].
For `COc1ccc(/C=N/NC(=O)c2cccnc2)cc1COc1ccc([N+](=O)[O-])c(C)c1`, the Potency was active: 6.51 µM.
With `COc1cccc(NC(=O)CSc2nc3n[nH]c(C)c3c(=N)n2-c2cccc(OC)c2)c1` the “activity change, negative = cytotoxic” value was inactive: 14.8%.
In the case of `C/C(=N\NC(=O)C1COc2ccccc2O1)c1ccccn1` (configuration not stated), the Potency is reported as inconclusive: 3.26 µM [cytotoxic, full curve].
With `O=C(Nc1ccc2c(c1)OCCO2)C(=O)c1c[nH]c2ccccc12` the Potency was active: 3.66 µM.
With `NC(=O)c1nn(-c2ccccc2)nc1NC(=O)Cn1nnc(-c2ccccc2)n1` the “activity change, negative = cytotoxic” value was inactive: 0%.
With `NC(=S)NN=Cc1ccc(OC(=O)COc2cc(Cl)c(Cl)cc2Cl)cn1` the Potency was inconclusive: 16.4 µM [cytotoxic, single point].
With `Cc1ccc(-c2nc3ccc(Br)cn3c2Cc2cccc(Cl)c2)cc1` the activity change, negative = cytotoxic was inconclusive: -0.657%.
With `O=C1CCC(c2ccccc2)N1c1ccccc1` (configuration not stated) the “activity change, negative = cytotoxic” value was inactive: -0.135%.
For `CCN1C/C(=C\c2cccc([N+](=O)[O-])c2)C(=O)/C(=C/c2cccc([N+](=O)[O-])c2)C1`, the Potency was active: 0.92 µM.
For `Cc1cc(C(=O)OCC(=O)Nc2cc(C(F)(F)F)ccc2N2CCOCC2)c(C)o1`, the Potency was inconclusive: 18.4 µM [cytotoxic, single point].
With `C=CCn1c(C)cc(C(=O)CSc2nc3ccccc3o2)c1C` the Potency was inconclusive: 18.4 µM [cytotoxic, single point].
With `COc1ccc(C2=NOC(C(=O)NCc3cccnc3)C2)cc1` (configuration not stated) the “activity change, negative = cytotoxic” value was inactive: -0.729%.
For `N#Cc1nc(/C=C/c2ccc(F)cc2)oc1N1CCN(c2ccccc2)CC1`, the “activity change, negative = cytotoxic” value was inactive: 7%.
In the case of `O=S(=O)(c1ccccc1)c1nc(Nc2cccc(O)c2)sc1Cl`, the Potency is reported as active: 16.4 µM.
With `O=C(O)/C(=C\c1cccc(OCc2ccccc2)c1)c1ccc(F)cc1` the “activity change, negative = cytotoxic” value was inactive: -8.37%.
With `N#CCCn1cc(CNC2CCC(O)CC2)c2ccccc21` (configuration not stated) the Potency was inconclusive: 6.51 µM [rising, partial curve, poor fit].
In the case of `CCCN1C(=O)/C(=C/c2c(NCCCOC(C)C)nc3c(C)cccn3c2=O)SC1=S`, the “activity change, negative = cytotoxic” value is reported as inactive: 1.59%.
For `COc1cc(N/C(N)=N/c2nc(C)cc(C)n2)cc(OC)c1`, the Potency was inconclusive: 29.1 µM [cytotoxic, single point].
In the case of `CCOC(=O)c1cccc(NC2c3ccccc3C(=O)N2Cc2ccco2)c1` (configuration not stated), the Potency is reported as inconclusive: 13 µM [cytotoxic, partial curve].
For `COc1ccc(OC)c(C2C(C#N)=C(N)Oc3cc(N)ccc32)c1` (configuration not stated), the Potency was inconclusive: 23.1 µM [cytotoxic, single point].
In the case of `CN(Cc1nc(-c2ccc(Cl)cc2)no1)C(=O)c1ccco1`, the activity change, negative = cytotoxic is reported as inconclusive: -13.7%.
In the case of `N#Cc1c(N2CCOCC2)nc(N2CCCCC2)c2c1CCN(C1CCCCC1)C2`, the Potency is reported as inconclusive: 29.1 µM [cytotoxic, single point].
For `COc1cc(/C=C/C(=O)OCC(=O)NCc2ccc(F)cc2)ccc1O`, the Potency was inconclusive: 7.31 µM [cytotoxic, partial curve, poor fit].
With `O=C(CCCCCNc1nc(=S)[nH]c2ccccc12)NCCC1=CCCCC1` the Potency was inconclusive: 29.1 µM [cytotoxic, single point].
With `Cc1cccc2cc(-c3ccccc3)c(-c3ccccc3)c[n+]12` the Potency was inconclusive: 29.1 µM [cytotoxic, single point].
For `Cc1cccc(C2NC(=O)c3ccccc3N2)c1` (configuration not stated), the Potency was active: 13 µM.
With `O=C(Nc1ccn(Cc2ccccc2F)n1)c1ccc(COc2cc(Cl)ccc2Cl)o1` the “activity change, negative = cytotoxic” value was inactive: -27.6%.
With `CCOc1ccc(NCc2ccccc2OCc2cccc(F)c2)cc1` the Potency was inconclusive: 23.1 µM [cytotoxic, single point].
In the case of `Cn1c(=O)c2cc(NC(=O)CCc3ccc(O)cc3)ccc2n1Cc1cccc(C(F)(F)F)c1`, the Potency is reported as inconclusive: 4.61 µM [cytotoxic, full curve].
With `CCCn1c(NC(=O)C2CCN(C(=O)c3ccccc3C)CC2)nc2ccccc21` the Potency was inconclusive: 29.1 µM [cytotoxic, single point].
For `Oc1c(CN2CCOCC2)ccc2ccccc12`, the “activity change, negative = cytotoxic” value was inactive: 0%.
With `c1ccc2c(c1)CCc1ccccc1C2=C1CCNCC1` the Potency was inconclusive: 16.4 µM [cytotoxic, single point].
In the case of `COc1ccc(NC(=O)CNc2ccc(C#N)cc2)cc1`, the “activity change, negative = cytotoxic” value is reported as inactive: -0.281%.
For `COCCN(C(=O)COC(=O)c1cc2c(s1)CCC2)c1c(N)n(Cc2ccccc2)c(=O)[nH]c1=O`, the Potency was inconclusive: 11.6 µM [rising, partial curve, poor fit].
For `O=[N+]([O-])c1cc(/C=N/N2CCN(C3c4ccccc4-c4ccccc43)CC2)ccc1Cl`, the Potency was active: 20.6 µM.
In the case of `O=C(CN1CCN(c2ccc(O)cc2)CC1)Nc1ccc(SC(F)F)cc1`, the Potency is reported as inconclusive: 7.31 µM [cytotoxic, partial curve, poor fit].
In the case of `COc1ccc2cc(/C(C)=N/NC(=O)c3cc(C)oc3C)ccc2c1`, the “activity change, negative = cytotoxic” value is reported as inactive: 2.61%.
For `CC(CCc1ccccc1)NC(=O)COC(=O)c1ccc(NC(=O)CC#N)cc1` (configuration not stated), the “activity change, negative = cytotoxic” value was inactive: 6.56%.
For `CN(Cc1ccccc1)S(=O)(=O)c1ccc(NC(=S)NC(=O)C2CCCCC2)cc1`, the Potency was inconclusive: 23.1 µM [cytotoxic, single point].
In the case of `CNC(=O)C1CCC(Cn2c(=O)[nH]c3ccsc3c2=O)CC1` (configuration not stated), the “activity change, negative = cytotoxic” value is reported as inactive: -8.23%.
For `O=C(CSc1nnc(NC(=O)c2ccco2)s1)Nc1cccc(F)c1`, the “activity change, negative = cytotoxic” value was inactive: 13.1%.
For `N#Cc1c(NC(=O)CSc2nc(N)cc(=O)[nH]2)sc2c1CCCCCC2`, the Potency was inconclusive: 29.1 µM [cytotoxic, single point].
In the case of `Cc1nnc(SCC(=O)N/N=C/c2ccc(-c3ccc(C)c(Cl)c3)o2)s1`, the Potency is reported as inconclusive: 29.1 µM [cytotoxic, single point].
For `COc1ccc2nc(N3C(=O)CNC3=S)sc2c1`, the Potency was inconclusive: 29.1 µM [cytotoxic, single point].
With `O=C(NC1c2ccccc2Oc2ccccc21)c1ccc([N+](=O)[O-])cc1` the “activity change, negative = cytotoxic” value was inactive: -6.97%.
For `C=CC[n+]1ccc2ccccc2c1C`, the Potency was inconclusive: 18.4 µM [cytotoxic, single point].
With `Cc1ccc(NS(=O)(=O)c2ccc3c(c2)NC(=O)CCS3)cc1C` the Potency was inconclusive: 20.6 µM [cytotoxic, single point] and inconclusive: 18.4 µM [cytotoxic, single point].
In the case of `N#CC(C#N)=C1C=CC=CN1/C(=C\c1ccco1)C(=O)c1ccccc1`, the Potency is reported as inconclusive: 10.3 µM [cytotoxic, partial curve].
In the case of `CC(=O)Oc1ccc(/C=C(\NC(=O)c2ccco2)C(=O)NCc2ccco2)cc1`, the Potency is reported as inconclusive: 9.2 µM [cytotoxic, partial curve, poor fit].
For `O=C(NCSc1ccccc1)c1ccccc1`, the “activity change, negative = cytotoxic” value was inactive: 17.1%.
For `O=C(O)CSCC(=O)Nc1ccc(-c2nc3ccccc3s2)cc1`, the “activity change, negative = cytotoxic” value was inactive: 5.36%.
In the case of `CSc1ccc(CNc2ncc(-c3ccccc3)n2C)cc1`, the activity change, negative = cytotoxic is reported as inconclusive: 7.71%.
In the case of `Cc1ccc(-c2nnn3c2nc(Cl)c2ccccc23)cc1`, the “activity change, negative = cytotoxic” value is reported as inactive: -8.21%.
With `COc1ccccc1CNC(=O)Cc1ccc(Br)cc1` the “activity change, negative = cytotoxic” value was inactive: 0%.
With `COCCN=C1N[C@@H](c2ccccc2)C(C(=O)OC)=C(C)N1Cc1ccccc1` the “activity change, negative = cytotoxic” value was inactive: 8.48%.
In the case of `C=CCN(C(=O)Nc1ccc(Cl)cc1)C1CC(=O)N(c2ccc(OC)cc2)C1=O` (configuration not stated), the “activity change, negative = cytotoxic” value is reported as inactive: 3.3%.
In the case of `CCN(CC)S(=O)(=O)c1ccc(C(=O)Nc2nc3c(Cl)cc(Cl)cc3s2)cc1`, the Potency is reported as active: 20.6 µM.
With `O=c1[nH]c2ccc(NCc3ccccc3OCc3ccc(Cl)cc3)cc2[nH]1` the Potency was inconclusive: 20.6 µM [cytotoxic, single point].
For `CCCC(=O)C1=C(O)C(C(=O)OC)C(C)(C)CC1=Nc1cccc2ccccc12` (configuration not stated), the Potency was inconclusive: 16.4 µM [cytotoxic, single point].
With `COc1cccc(-n2nnc3c(=O)n(CC(=O)Nc4ccc(C)cc4)cnc32)c1` the Potency was inconclusive: 32.6 µM [rising, single point].
For `COc1ccc(/C=N/NC(=O)c2ccccc2)cc1CN1CCN(c2ccc(F)cc2)CC1`, the “activity change, negative = cytotoxic” value was inactive: 6.9%.
